According to publication PMC12582974:
Results are given in words; binding and its absence hold for the method and conditions named. Tags and fused reporters may be left off the sequences shown.

Amino acid sequences for entries named in this document (tags omitted). A change or cut given only in a name is not applied to a line headed by its entry.
UniProt O43156: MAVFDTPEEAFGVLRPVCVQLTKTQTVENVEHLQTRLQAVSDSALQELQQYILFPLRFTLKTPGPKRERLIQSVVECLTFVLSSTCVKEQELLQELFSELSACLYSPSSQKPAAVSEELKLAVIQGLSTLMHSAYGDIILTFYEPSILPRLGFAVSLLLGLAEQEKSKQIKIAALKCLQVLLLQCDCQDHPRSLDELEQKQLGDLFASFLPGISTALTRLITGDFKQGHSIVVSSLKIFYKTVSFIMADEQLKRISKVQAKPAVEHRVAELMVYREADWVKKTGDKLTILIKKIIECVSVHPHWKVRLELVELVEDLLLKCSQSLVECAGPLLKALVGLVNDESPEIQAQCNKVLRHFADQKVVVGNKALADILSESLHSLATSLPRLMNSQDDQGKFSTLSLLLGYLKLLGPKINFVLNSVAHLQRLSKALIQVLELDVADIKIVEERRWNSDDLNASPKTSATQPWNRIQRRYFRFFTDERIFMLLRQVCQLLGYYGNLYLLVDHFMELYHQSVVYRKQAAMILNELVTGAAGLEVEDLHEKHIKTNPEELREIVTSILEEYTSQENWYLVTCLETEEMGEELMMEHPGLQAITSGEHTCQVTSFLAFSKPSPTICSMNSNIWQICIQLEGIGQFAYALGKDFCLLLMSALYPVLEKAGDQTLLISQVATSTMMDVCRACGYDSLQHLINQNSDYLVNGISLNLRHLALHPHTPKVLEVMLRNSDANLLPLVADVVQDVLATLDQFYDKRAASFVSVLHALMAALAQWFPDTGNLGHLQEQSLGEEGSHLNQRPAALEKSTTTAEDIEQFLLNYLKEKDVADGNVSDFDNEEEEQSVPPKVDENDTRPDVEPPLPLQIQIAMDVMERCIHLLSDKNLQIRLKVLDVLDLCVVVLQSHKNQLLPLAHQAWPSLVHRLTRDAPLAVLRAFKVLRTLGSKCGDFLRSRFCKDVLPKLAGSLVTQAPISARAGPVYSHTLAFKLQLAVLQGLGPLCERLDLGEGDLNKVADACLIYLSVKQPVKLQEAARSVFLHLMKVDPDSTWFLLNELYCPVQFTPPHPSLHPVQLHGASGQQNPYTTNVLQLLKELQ

Target: T1, WAC-3xFlag (human WAC with C-terminal 3xFlag tag, pACEMam-WAC-3C-3xFlag) (human) (UniProt Q9BTA9)
T1 sequence: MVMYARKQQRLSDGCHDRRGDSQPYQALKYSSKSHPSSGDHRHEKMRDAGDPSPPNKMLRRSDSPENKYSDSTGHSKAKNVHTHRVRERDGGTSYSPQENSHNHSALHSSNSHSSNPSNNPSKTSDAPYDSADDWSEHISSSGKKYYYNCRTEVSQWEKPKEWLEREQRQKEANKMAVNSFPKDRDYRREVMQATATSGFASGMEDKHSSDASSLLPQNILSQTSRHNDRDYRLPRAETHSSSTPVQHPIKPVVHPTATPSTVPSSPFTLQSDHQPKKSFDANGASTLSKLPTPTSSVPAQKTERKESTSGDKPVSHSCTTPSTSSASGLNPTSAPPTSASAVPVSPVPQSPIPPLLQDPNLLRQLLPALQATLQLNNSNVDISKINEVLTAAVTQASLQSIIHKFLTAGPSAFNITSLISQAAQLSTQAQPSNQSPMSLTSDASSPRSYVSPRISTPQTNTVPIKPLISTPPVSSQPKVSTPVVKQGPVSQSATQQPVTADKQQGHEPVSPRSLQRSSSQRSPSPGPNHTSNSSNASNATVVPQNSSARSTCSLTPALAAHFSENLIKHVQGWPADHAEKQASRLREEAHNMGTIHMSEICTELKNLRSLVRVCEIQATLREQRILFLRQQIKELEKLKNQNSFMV
Experiment: pull-down; WAC-3xFlag from Expi293 lysate purified and held on anti-Flag resin (washes incl. 5 mM ATP/5 mM MgCl2); purified prey added 20 min at 4 °C in 150 mM Tris pH 8, 300 mM KCl, 10% glycerol, 0.5 mM TCEP; elution with 3xFlag peptide; SDS/PAGE and western blot; both purified

binding: no binding
Substance: TTI1-TTI2 subcomplex (TwinStrep-3xHA-3C-TTI1 with untagged TTI2) (from UniProt O43156 1-1089; Q6NXR4 1-508)
